Assay results reported in PubChem BioAssay AID2685 (National Center for Advancing Translational Sciences (NCATS), 2010).
The list shows a part of the results. Shown are side measurements of this screen, not its main read-out; they come without a call. The list favours compounds with an active or inconclusive main result. Words in brackets tell the shape of the fitted curve; partial curves, single points and poor fits give uncertain potencies.

Assay: qHTS Assay for Lipid Storage Modulators in Drosophila S3 Cells;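 for cell number change: cells counted by Cell Tracker Red CMTPX staining in the red channel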
Settings: BODIPY lipid droplet fluorescence, 18-24 h; for cell number change: measured here: cell count max response, cells fed with added oleic acid
Method in brief: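 Laser-scanning cytometry quantifies lipid droplet accumulation (500–530 nm total intensity; droplet/cell object ratio) in oleic acid-fed (400 uM added) Drosophila S3 cells treated with a concentration series. 20 uM Triacsin C defined 100% inhibition.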

[1] = measured here: lipid fluorescence (Fed channel) AC50, cells fed with added oleic acid
[2] = measured here: cell number channel AC50, cells fed with added oleic acid

CCCCN(CC)C(=O)Cc1ccc(Br)cc1
cell number change: 1.1%
AC50 [1]: 6.51 µM [rising, single point]

Cc1ccccc1NC(=O)c1ccccc1NC(=O)c1cccs1
cell number change: 17.5%
AC50 [1]: 16.4 µM [rising, partial curve]

COc1ccc(COC(=O)CN2C(=O)NC3(CCCC3)C2=O)cc1F
cell number change: 84.7%
AC50 [2]: 11.6 µM [rising, partial curve]

Cc1cccc(N2C(=O)N3[C@@H]4c5ccccc5OC[C@@H]4[C@@H](c4ccccc4)[C@]3(C)C2=O)c1
cell number change: 26.5%
AC50 [1]: 29.1 µM [rising, single point]

CN(c1ccccc1)c1ccc(/C=C/[N+](=O)[O-])cc1
cell number change: -74%
AC50 [2]: 11.6 µM [falling, partial curve]
AC50 [1]: 29.1 µM [falling, partial curve, poor fit]

Cc1nc2ccccc2nc1CSc1nncs1
cell number change: -20.3%

CN(C)c1nc(N)nc(-c2nc3ccccc3s2)n1
AC50 [1]: 3.66 µM [rising, partial curve]

COC(=O)c1ccc2c(=O)n(CCN3CCOCC3)c(SCC(=O)Nc3ccc(C)cc3)nc2c1
cell number change: -19.5%
AC50 [1]: 29.1 µM [falling, single point]

COc1cc(CN2CCC(C(=O)N3CCN(c4ccccc4F)CC3)CC2)cc(OC)c1O
cell number change: -0.419%
AC50 [1]: 3.26 µM [falling, partial curve, poor fit]

C=CCn1c(COc2cccc(C)c2)nnc1SCC(=O)NC(=O)NCc1ccco1
AC50 [1]: 0.00517 µM [rising, full curve, poor fit]

O=C(/C=C/c1ccc(O)c(O)c1)OC1C(O)CC(OC(=O)/C=C/c2ccc(O)c(O)c2)(C(=O)O)CC1O (stereo not drawn)
cell number change: 101%
AC50 [2]: 18.4 µM [rising, single point]

CCCCN1C(Nc2ccccc2)=NC[C@@H]1C
cell number change: -5.46%
AC50 [1]: 1.84 µM [rising, partial curve]

C/C(=N\NC(=O)c1c(Br)c(C)nn1C)c1ccc(NC(=O)C(C)Oc2ccc(Cl)cc2C)cc1 (stereo not drawn)
cell number change: 1.63%

COc1ccc(C(CNC(=O)c2cccc(S(=O)(=O)N3CCOCC3)c2)N2CCCC2)cc1 (stereo not drawn)
cell number change: -4.21%
AC50 [1]: 0.092 µM [falling, full curve, poor fit]

O=C(CNc1ccc(F)cc1Cl)Nc1cccc(S(=O)(=O)N2CCCCC2)c1
cell number change: -4.93%

Cc1ccc(S(=O)(=O)N2CCC(=O)N(CCOC(=O)Nc3ccc(F)cc3)CC2)cc1
AC50 [1]: 8.2 µM [rising, partial curve]

COc1ccc(N2CCN(C(=O)CSc3nnc4n3C(C)(C)Cc3ccccc3-4)CC2)cc1
AC50 [2]: 0.461 µM [rising, partial curve, poor fit]
AC50 [1]: 2.06 µM [rising, partial curve]

CC(C)(C)CN1CCNC(=O)C1CC(=O)NCc1cccc(-n2cccn2)c1 (stereo not drawn)
cell number change: 7.04%
AC50 [1]: 0.0259 µM [rising, full curve, poor fit]

CN(C(=O)c1ccncc1)C1CCCCC1
cell number change: -4.99%
AC50 [1]: 0.116 µM [falling, full curve, poor fit]

CCC(CC)CN1CCN=C1Nc1ccccc1
cell number change: 23.8%
AC50 [2]: 6.51 µM [falling, partial curve, poor fit]
AC50 [1]: 6.51 µM [falling, partial curve, poor fit]

COC(=O)c1cn(NC(=O)c2cc([N+](=O)[O-])ccc2F)c(=O)c2ccccc12
cell number change: -2.6%

COc1ccc(OC)c2c1C(=O)c1ccccc1C2=O
cell number change: -99.2%
AC50 [2]: 29.1 µM [falling, single point]
AC50 [1]: 29.1 µM [falling, single point]

CCOC(=O)c1nn(-c2ccc(OC)cc2)c(=O)c2c(N)scc12
cell number change: -22.3%
AC50 [1]: 32.6 µM [falling, single point]

COc1ccccc1OCc1cc(C(=O)N2CCN(C)C(c3ccccc3)C2)no1 (stereo not drawn)
cell number change: 41.1%
AC50 [2]: 11.6 µM [rising, partial curve, poor fit]

COc1ccc(CSc2nnc(C)n2N)cc1Br
cell number change: -2.4%
AC50 [1]: 3.26 µM [rising, single point]

O=C(CNC(=O)Cc1ccccc1)N=Nc1c(O)[nH]c2ccc(Br)cc12
cell number change: -89.7%
AC50 [2]: 29.1 µM [falling, single point]

NC(=O)CCn1c(C(=O)c2cccc([N+](=O)[O-])c2)c2ccccc2[n+]1[O-]
cell number change: 16.8%

Cc1ccccc1NC(=O)/C(C#N)=C\c1ccsc1
cell number change: -0.879%
AC50 [1]: 16.4 µM [falling, partial curve, poor fit]

Cc1nc(N2CCN(C(=O)c3cnccn3)CC2)c2c3c(sc2n1)CC(C(C)(C)C)CC3 (stereo not drawn)
cell number change: 14.5%
AC50 [1]: 5.62 µM [rising, single point]

Cc1ccc2c(c1)C(c1ccccc1)N(C(=O)c1ccc(S(=O)(=O)N3CCOCC3)cc1)CC(=O)N2 (stereo not drawn)
cell number change: -5.25%
AC50 [1]: 6.51 µM [rising, single point]

CCCc1cc(Nc2ccc(C)cc2)n2ncnc2n1
cell number change: 1.65%
AC50 [1]: 4.11 µM [falling, full curve]

O=C(OCCN1CCOCC1)c1cccs1
cell number change: -14.6%
AC50 [1]: 0.00517 µM [falling, full curve, poor fit]

O=C(COc1ccc2ccccc2c1)N1CCN(c2ccccc2)CC1
cell number change: 3.62%
AC50 [1]: 29.1 µM [falling, single point]

CN(C)CC(C)(C)CNS(=O)(=O)c1ccc(Cl)s1
cell number change: -35.3%
AC50 [1]: 4.61 µM [falling, full curve]

CC(C)C(NC(=O)c1ccc(Cl)cc1)C(=O)NC1=NCCS1 (stereo not drawn)
cell number change: 34%
AC50 [2]: 29.1 µM [rising, single point]
AC50 [1]: 0.0058 µM [rising, full curve, poor fit]

CCN(CC)CCNC(=O)c1cc(S(=O)(=O)N2CCc3ccccc32)cn1C
cell number change: 7.49%
AC50 [1]: 2.06 µM [rising, partial curve]

COCCNC(=S)Nc1ccc([N+](=O)[O-])cc1C
cell number change: 36%

Cc1ccc(C(=O)CSc2nnc(-c3ccco3)n2Cc2ccccc2)cc1
cell number change: 1.18%
AC50 [1]: 1.16 µM [falling, single point]

O=C(CN1C(=O)C2CC=CCC2C1=O)Nc1nnc(SCc2c(Cl)cccc2Cl)s1 (stereo not drawn)
cell number change: 54.2%
AC50 [2]: 0.651 µM [rising, full curve]
